Data from PubChem BioAssay AID540336 (Broad Institute, 2011).
The campaign covered roughly 330,000 compounds. About 520 (0.16%) were called active. This list was built around the results that the source calls inconclusive (neither active nor inactive); the mix of calls is not that of the screen.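 Rule for the calls: active = inhibition of at least 50% in every replicate; inconclusive = best replicate reaches 50% inhibition but some replicates fall short; inactive = the rest.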

The chains behind the UniProt entries cited, without tags or fusion partners.
UniProt Q5AAJ8, whole entry, looked up: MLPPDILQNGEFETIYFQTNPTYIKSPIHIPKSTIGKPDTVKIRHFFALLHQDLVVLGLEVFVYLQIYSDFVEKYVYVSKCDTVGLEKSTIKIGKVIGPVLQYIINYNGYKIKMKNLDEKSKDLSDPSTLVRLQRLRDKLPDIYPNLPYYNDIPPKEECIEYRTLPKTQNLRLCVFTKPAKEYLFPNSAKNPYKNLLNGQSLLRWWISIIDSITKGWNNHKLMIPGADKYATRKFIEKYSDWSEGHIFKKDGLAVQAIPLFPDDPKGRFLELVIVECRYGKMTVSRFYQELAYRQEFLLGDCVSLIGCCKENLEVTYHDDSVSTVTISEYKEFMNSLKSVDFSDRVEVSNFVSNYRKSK

What follows are compounds tested against Histone acetyltransferase RTT109 (Candida albicans (strain SC5314 / ATCC MYA-2876)) (UniProt Q5AAJ8) (assay: Rtt109-Vps75 histone acetyltransferase blockade – biochemical, ThioGlo CoA-SH fluorescence, plate reader, primary screen (AID 540336)). Details: purified Rtt109/Vps75, ThioGlo CoA-SH fluorescence, 4 h; at 34.9 µM; stronger effect = higher value.

inhibition, inconclusive:
c1ccc(CSc2nnc(-c3ccco3)c(-c3ccco3)n2)cc1 40.8%
Oc1cccc(Nc2nc(NCC3CCCO3)c3ccccc3n2)c1 (stereo not drawn) 32.3%
Cn1c(=O)[nH]c(=O)c2c1nc(SCCN1CCCCC1)n2CCCc1ccccc1 38.5%
CSCCC(NC(=O)COc1ccccc1)C(=O)OCCOc1ccc(C)cc1 (stereo not drawn) 17.1%
CCCCCc1ccc(OCCC[n+]2ccccc2)c(CCCCC)c1 55.2%
CCOC(=O)c1c(S(=O)(=O)N2CCN(C3CCCCC3)CC2)c(C)n(C)c1C 14.9%
CN(C)CCCN(C(=O)c1ccc(S(=O)(=O)N(C)Cc2ccccc2)cc1)c1nc2cc3c(cc2s1)OCO3 34.8%
CC(C)(C)c1ccc(C(=O)N/C(=C\c2cccs2)C(=O)NCc2ccco2)cc1 42.3%
COc1ccc(N2CCN(C(C)C(=O)N(C)Cc3ccccc3)CC2)cc1 (stereo not drawn) 23.7%
O=C(O)c1cccc(S(=O)(=O)Nc2ccccc2Cc2ccccc2)c1 33.7%
COc1ccc(Nc2nc(N3CCCC3)c3ccccc3n2)cc1 21.9%
CCN1CCCC1CNC(=O)c1ccc2c(c1)N(Cc1cccc(Cl)c1)C(=O)c1ccccc1S2(=O)=O (stereo not drawn) 51.5%
COc1ccc(-c2cc(C)no2)cc1S(=O)(=O)NCC1CCN(Cc2cc(C)ccc2C)CC1 33.9%
CC(C)(C)OC(=O)N1C[C@H](O)C[C@H]1C(=O)OCC(=O)c1ccc([N+](=O)[O-])cc1 22.2%
CC(C)Cn1c(N)c(C(=O)COC(=O)c2cccc(F)c2)c(=O)n(C)c1=O 25.7%
Cc1ccc(N2C(=O)SC(N(CC(=O)O)c3cccc(C)c3)C2=O)cc1 (stereo not drawn) 33.7%
CN1CCN(NS(=O)(=O)c2ccc(Cl)cc2)CC1 48.7%
COc1cccc(OCC(O)CN2CCC(Cc3ccccc3)CC2)c1 (stereo not drawn) 50.8%
COc1cc(N=Cc2c(O)c3ccccc3oc2=O)c(OC)cc1Cl 33.5%
CCOC(=O)c1c(NC(=O)C2C3C=CC(C3)C2C(=O)O)sc2c1CC(C)CC2 (stereo not drawn) 45.7%
O=C(CNc1cc(S(=O)(=O)N2CCOCC2)ccc1NCC1CCCO1)Nc1ccc(C(F)(F)F)cc1 (stereo not drawn) 33.7%
Cc1c(C(=O)c2no[n+]([O-])c2C(=O)c2cnn(C)c2C)cnn1C 58.5%
BrC(/C=N/N1CCN(Cc2ccccc2)CC1)=C/c1ccccc1 28.5%
Cc1ccc(C(=O)C2CCN(CC(=O)NC3CCCC3)CC2)cc1 32.1%
CSc1nsc(SC)c1NC(=O)Nc1ccccc1C 52.2%
Cc1ccc(N2C(=O)CC(Sc3ncn[nH]3)C2=O)cc1C (stereo not drawn) 29.2%
CCCN1CCN(C(=O)C(NC(=O)c2ccco2)C(C)C)CC1 (stereo not drawn) 30.9%
COc1cc2c(cc1OC)CN(c1nc(CN3CCCC3)nc3sc(C)c(C)c13)CC2 58.5%
CCOC(=O)C1CCN(S(=O)(=O)c2ccc(CNC(=O)c3ccccc3)s2)CC1 16.5%
C=CCn1c(C)c(C(C)=O)c(N2CCN(c3ccccc3)CC2)nc1=S 47.6%
COC(=O)CSc1[nH]c2ccc(F)cc2c1[N+](=O)[O-] 35%
O=C(/C=C/c1ccco1)NC1CCCC1 24.4%
Oc1ccc(C2=Nn3c(nnc3-c3ccco3)SC2)cc1O 31.8%
COc1ccc(C2c3sc(=O)[nH]c3SCC2C(N)=O)cc1 (stereo not drawn) 30.8%
O=C(NN1C(=O)C2C(C1=O)C1C=CC2C12CC2)c1ccccc1Cl (stereo not drawn) 29.3%
COC(=O)c1cccc(NC(=S)Nc2ccc(Cl)c(Cl)c2)c1 28.4%
COc1ccccc1N1CCN(C(=O)CSc2nnc(C)n2C2CC2)CC1 35.1%
CCN1/C(=C\c2ccc3cc(C)ccc3[n+]2CC)Sc2cc(C)c(C)cc21 53.6%
Cc1ccc(-c2csc(N(CC3CCCO3)C(=O)c3ccco3)n2)cc1 (stereo not drawn) 24.8%
Cc1cc(C)n(-c2nc3ccccc3n3cnnc23)n1 40.2%
NC(=NCCCCCCN=C(N)/N=C(\N)Nc1ccc(Cl)cc1)/N=C(\N)Nc1ccc(Cl)cc1 36.5%
Cc1ccc(C(CC(=O)O)NC(=O)CCNC(=O)c2ccco2)cc1 (stereo not drawn) 24%
CCC[C@@H](CN1CCC[C@H]1CN1C(N)=NC[C@@H]1Cc1ccccc1)N1C[C@@H]([C@H](C)CC)N(CCCC2CCCC2)C1=N 50.3%
C=CC(=O)Nc1cccc(N(C)c2ccnc(Nc3ccc(N4CCN(C)CC4)cc3)n2)c1 51.9%
C#CCOCCOCCOCCNc1nc(N2CCN(C(=O)[C@H](CCCCN)n3cc(CN)nn3)CC2)nc(N2CCN(C(=O)[C@H](CCCCN)n3cc(CN)nn3)CC2)n1 53%
C#CCOCCOCCOCCNc1nc(N2CCN(C(=O)[C@H](CCCCN)n3cc([C@@H](N)C(C)CC)nn3)CC2)nc(N2CCN(C(=O)[C@H](CCCCN)n3cc([C@@H](N)CC(C)C)nn3)CC2)n1 (stereo partly drawn) 54.2%
NC1=NC[C@H](Cc2ccccc2)N1CCCCC1CCCCC1 43.7%
CCCCCc1ccc(OCCCC[n+]2ccccc2)c(CCCCC)c1 43.7%
O=C(N=C1c2ccccc2CN1c1ccc(F)cc1)c1ccc(Cl)nc1 27.8%
Cc1ccc(S(=O)(=O)Nc2ccc3oc(=O)sc3c2)c(C)c1 42.8%
CC/C(C)=N/Nc1cccc([N+](=O)[O-])c1 25.8%
COc1ccc(N(CC(=O)N/N=C/c2cc(Br)c(C)o2)S(=O)(=O)c2ccc(NC(C)=O)cc2)cc1 28.3%

Retrieved by compound from the entries so far (four):
inhibition, inconclusive:
CCC[C@@H](CN1CCC[C@H]1CN1C(N)=NC[C@@H]1Cc1ccccc1)N1C[C@@H]([C@H](C)CC)N(CCCC2CCCC2)C1=N 50.3%
COC(=O)CSc1[nH]c2ccc(F)cc2c1[N+](=O)[O-] 35%
O=C(N=C1c2ccccc2CN1c1ccc(F)cc1)c1ccc(Cl)nc1 27.8%
CC(C)Cn1c(N)c(C(=O)COC(=O)c2cccc(F)c2)c(=O)n(C)c1=O 25.7%

Following part:

inhibition, active:
Cc1ccc(S(=O)(=O)Nc2ccc(O)c3cccnc23)cc1 128%
COCCNC(=O)C1=C(N)C(C(=O)Nc2ccc(C)c(S(=O)(=O)N3CCCCC3)c2)SC1=Nc1ccc(C)cc1C (stereo not drawn) 57.8%
C/C=C/n1ccnc1CC(O)(c1ccccc1)c1ccc(C)cc1 (stereo not drawn) 60.1%
COc1cccc(C(=O)NCc2nnc(SCC(=O)Nc3nccs3)n2-c2cccc(C)c2)c1 61.4%
O=C(CSc1n[nH]c(-c2ccccc2Cl)n1)NC1CCCCC1 51%
O=C(NC(=S)Nc1ccc(Oc2ccccc2)cc1)c1ccc(Cl)cc1 54.6%
Cc1cccc(-n2c(SCC(N)=O)nc3c(c2=O)C2(CCCCC2)Cc2ccccc2-3)c1 53.5%
CCCCn1c(N)c(N(Cc2ccccc2OC)C(=O)c2sccc2C)c(=O)[nH]c1=O 50.4%
N#C/C(=C\c1ccncc1)c1nc2c(s1)CCCC2 57.5%
O=C(COC(=O)Cc1ccccc1[N+](=O)[O-])Nc1nnc(-c2ccccc2)o1 55.7%
Cc1nonc1OCCn1c([N+](=O)[O-])cnc1C 52.6%
CC(c1ccccc1)n1c(N2CCNCC2)nc2c1c(=O)[nH]c(=O)n2C (stereo not drawn) 64.9%
Cc1cccc(NC(=O)CCN2C(=O)c3ccccc3C2=O)c1 59%

inhibition, inactive:
O=C(Nc1cc([N+](=O)[O-])ccc1F)C1CC1 3.76%
Cc1ccc(S(=O)(=O)N2CCN(S(=O)(=O)N3CCOCC3)CC2)cc1C 4.24%
COc1ccccc1/C=C/c1nc(S(=O)(=O)c2ccccc2)c(N2CCC(C(N)=O)CC2)o1 11.7%
O=C(NC(=S)Nc1ccc(F)c(Cl)c1)C1CC1 21.6%
COc1ccc(-c2nc(NC(=O)C3CC(=O)N(c4ccc5c(c4)OCCO5)C3)sc2C)cc1 (stereo not drawn) -9.99%
CCN(CC)CCOC(=O)C1(c2ccc(OC)c(OC)c2)CCCC1 -1.6%
CCOC(=O)/C(C#N)=C\c1cn(C)c2ccccc12 -7.17%
COc1ccc(C)cc1Nc1nc(N)c2ccccc2n1 -6.83%
C/C(=N\O)c1ccc2c3ccccc3n(C)c2c1 -1.71%
C[N+]1(CC2COC3(CCCCC3)O2)CCCCC1 (stereo not drawn) -1.65%
Cc1ccc(S(=O)(=O)Nc2ccc3ccccc3c2)cc1 4.61%
Cc1onc(-c2ccccc2)c1C(=O)NC(=S)NNC(=O)c1ccncc1 0.08%
COc1c2c(nc3occc13)C(CC=C(C)C)(OC)C(O)CC2 (stereo not drawn) -2.94%
O=C(c1ccncc1)N(Cc1cc2ccccc2[nH]c1=O)C1CCCCC1 5.18%
COCCNC(=O)c1c[nH]c2cc(OC)c(OC)cc2c1=O -1.21%
CCSc1ccccc1C(=O)NC1CCCCC1 1.18%
O=C(Nc1ccccc1O)c1ccc([N+](=O)[O-])cc1 7.89%
N#CCc1ccc(NC(=O)Nc2cccc3ccccc23)cc1 -7.93%
Cc1[nH]nc2ncc(C(=O)c3ccccc3O)cc12 7.68%
O=C(COC(=O)Cc1ccc(Br)cc1)NC1CC1 -9.2%
O=C(NC(=S)Nc1cccc(NC(=S)NC(=O)c2ccccc2)c1)c1ccccc1 -1.64%
c1ccc2c(NC3CCCC3)nnc(NC3CCCC3)c2c1 3.63%
CCCCOC(=O)Nc1ccc(N(C)C)cc1 -3.77%
